Construct, isoform or probe ends are uncertain for at least one entry. For some assays here: No signal at the amounts used counts as a negative. For some assays here: Protein sequences can lack the tags named with them. For some assays here: At least one verdict rests on a figure or table, not on a statement of the authors.
Assays:
[1] = biological target: human ERα (Homo sapiens) (UniProt P03372); assay: EMSA; details: EMSA as previously described (ref 93); pH and temperature not given; in vitro translated proteins in reticulocyte lysate; protein translated in vitro; label: 32P
[2] = biological target: human ERβ (Homo sapiens) (UniProt Q92731); assay: EMSA; details: EMSA as previously described (ref 93); pH and temperature not given; in vitro translated proteins in reticulocyte lysate; protein translated in vitro; label: 32P
[3] = test system: lamprey ER (lampER) (Petromyzon marinus); assay: EMSA; details: EMSA as previously described (ref 93); pH and temperature not given; in vitro translated proteins in reticulocyte lysate; protein translated in vitro; label: 32P
[4] = biological target: T1, amphioxus ER (amphiER) (Branchiostoma floridae) (UniProt B3V8B7); assay: competition with a labelled probe; details: 100-fold excess vs labeled ERE; EMSA as previously described (ref 93); pH and temperature not given; in vitro translated proteins in reticulocyte lysate; protein translated in vitro; residues 1-705; label: none (unlabeled competitor)
T1 sequence (looked up): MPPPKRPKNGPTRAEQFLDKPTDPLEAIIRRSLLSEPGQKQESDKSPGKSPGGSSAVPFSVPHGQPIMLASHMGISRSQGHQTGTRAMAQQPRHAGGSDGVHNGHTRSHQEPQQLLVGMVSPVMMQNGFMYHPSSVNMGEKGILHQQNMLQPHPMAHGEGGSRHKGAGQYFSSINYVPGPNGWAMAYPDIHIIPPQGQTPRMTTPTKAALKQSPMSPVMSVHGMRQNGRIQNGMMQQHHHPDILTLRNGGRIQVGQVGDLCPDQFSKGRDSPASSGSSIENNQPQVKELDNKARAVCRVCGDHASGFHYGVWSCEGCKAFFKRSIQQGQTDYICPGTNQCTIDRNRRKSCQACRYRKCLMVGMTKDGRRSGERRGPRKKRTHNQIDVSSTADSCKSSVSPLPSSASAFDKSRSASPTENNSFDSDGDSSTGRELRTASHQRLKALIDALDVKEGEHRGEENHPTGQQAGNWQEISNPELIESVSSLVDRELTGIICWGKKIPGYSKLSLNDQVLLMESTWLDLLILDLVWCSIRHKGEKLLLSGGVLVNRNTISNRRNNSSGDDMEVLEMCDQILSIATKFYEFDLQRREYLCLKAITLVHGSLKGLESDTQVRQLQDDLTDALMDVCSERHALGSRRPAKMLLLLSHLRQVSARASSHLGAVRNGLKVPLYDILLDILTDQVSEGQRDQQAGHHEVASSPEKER

Sequences of proteins named here, by UniProt entry; tags and fusion partners are left off.
UniProt P03372, whole entry: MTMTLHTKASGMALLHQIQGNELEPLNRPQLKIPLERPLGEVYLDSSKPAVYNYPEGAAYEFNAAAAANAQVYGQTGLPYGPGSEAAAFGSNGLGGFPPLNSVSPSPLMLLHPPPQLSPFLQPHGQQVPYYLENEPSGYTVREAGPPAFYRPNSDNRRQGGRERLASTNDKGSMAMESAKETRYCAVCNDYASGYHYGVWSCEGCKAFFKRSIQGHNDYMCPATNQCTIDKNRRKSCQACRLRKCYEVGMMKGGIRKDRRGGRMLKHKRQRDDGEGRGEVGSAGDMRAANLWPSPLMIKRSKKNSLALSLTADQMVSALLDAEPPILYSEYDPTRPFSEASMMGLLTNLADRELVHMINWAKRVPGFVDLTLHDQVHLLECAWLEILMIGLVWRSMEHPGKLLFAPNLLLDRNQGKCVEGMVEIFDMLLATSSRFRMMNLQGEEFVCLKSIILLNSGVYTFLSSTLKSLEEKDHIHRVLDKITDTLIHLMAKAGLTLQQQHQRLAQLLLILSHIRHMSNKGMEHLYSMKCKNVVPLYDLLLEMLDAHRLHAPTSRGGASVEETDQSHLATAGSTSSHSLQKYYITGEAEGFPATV
UniProt Q92731, whole entry: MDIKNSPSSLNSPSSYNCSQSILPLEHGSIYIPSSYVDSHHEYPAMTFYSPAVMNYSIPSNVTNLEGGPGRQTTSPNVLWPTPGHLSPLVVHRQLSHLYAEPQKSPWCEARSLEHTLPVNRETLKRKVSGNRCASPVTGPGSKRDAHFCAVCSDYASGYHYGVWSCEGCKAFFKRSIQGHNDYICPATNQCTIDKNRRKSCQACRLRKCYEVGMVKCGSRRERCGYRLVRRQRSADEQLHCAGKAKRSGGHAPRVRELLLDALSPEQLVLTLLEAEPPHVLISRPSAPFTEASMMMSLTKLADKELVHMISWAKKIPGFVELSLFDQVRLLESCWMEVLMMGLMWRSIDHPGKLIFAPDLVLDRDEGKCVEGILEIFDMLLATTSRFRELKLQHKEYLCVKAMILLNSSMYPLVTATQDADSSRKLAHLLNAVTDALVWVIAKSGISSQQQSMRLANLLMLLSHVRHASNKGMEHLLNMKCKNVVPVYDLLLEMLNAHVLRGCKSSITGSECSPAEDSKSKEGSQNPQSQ

[5] = test system: lamprey ER (lampER) (Petromyzon marinus); assay: competition with a labelled probe; details: 100-fold excess vs labeled ERE; EMSA as previously described (ref 93); pH and temperature not given; in vitro translated proteins in reticulocyte lysate; protein translated in vitro; label: none (unlabeled competitor)

Sequence | binding result [1] | binding result [2] | binding result [3] | binding result [4] | binding result [5]
CGGGCCGAGGTCACAGTGACCTCGGCCCGT (double strand) [consensus ERE] | binds | binds | binds | – | –
CTAGTCCTAGGTCTAGAGAATTCA (double strand) [non-related probe (NS competitor)] | – | – | – | no binding | no binding

From publication PMC2529310
